± gives the standard deviation of the averaged measurements. Some of the results follow.
System: Madurella mycetomatis MM55
Assay: metabolic activity (growth) relative to DMSO growth control; higher = more fungal growth

SMILES | metabolic activity (1 µM) [%] | metabolic activity (2 µM) [%] | metabolic activity (10 µM) [%]
O=C(c1ccc(-c2cc(-c3c[nH]nc3-c3ccccn3)ccn2)cc1)N1CCCC1 | 103 ± 0.78 | 97 ± 13 | 111 ± 2.8
COc1ccc2c(-c3ccnc(Nc4cccc(OC(F)(F)F)c4)n3)cnn2n1 | 69.4 ± 3.4 | 81 ± 5.9 | 101 ± 8.7
Cl.c1ccc(Cc2nc3ccc(Nc4ncnc5ccccc45)cc3[nH]2)cc1 | 80 ± 3 | 82.3 ± 8.9 | 109 ± 6.5
Cc1cccc(NC(=O)Nc2ccc(-c3cncc4c3c(N)nn4C)cc2)c1 | 130 ± 44 | 110 ± 14 | 110 ± 0.93
Cn1c(=O)c(F)c(Nc2ccc(I)cc2F)c2c(=O)n(OC[C@H](O)CO)cnc21 | 98.5 ± 45 | 108 ± 12 | 114 ± 23
COc1cc2c(cc1CC(C)(C)O)Nc1cc(-c3ccc([N+](=O)[O-])c(OC)c3)ccc1C(=O)N2 | 98.7 ± 24 | 104 ± 12 | 127 ± 15
Cc1nc(Nc2cnn(C3CCNCC3)c2)nc2c1N(C)C(=O)c1cc3ccccc3cc1N2C | 105 ± 36 | 88.6 ± 18 | 100 ± 30
CN1CCN(c2ccc(Nc3ncc4c(=O)n(-c5c(Cl)cncc5Cl)nc(-c5ccccn5)c4n3)cc2)CC1.Cl.Cl | 105 ± 36 | 112 ± 31 | 99.5 ± 24
CCN(CC)S(=O)(=O)c1cc(Nc2nccc(-c3ccnc(-c4ccc(NC(=O)NC)cc4)c3)n2)ccc1Cl | 103 ± 3.9 | 105 ± 7 | 97.3 ± 11
NC(=O)c1c(Oc2cccc(CNS(N)(=O)=O)c2)cc(F)c(F)c1Nc1ccc(I)cc1F | 102 ± 9.4 | 118 ± 3.2 | 118 ± 13
NC[C@H](NC(=O)c1ccc(-c2ccncc2)cc1)c1ccccc1 | 90.2 ± 20 | 90.3 ± 15 | 117 ± 37
CN(C)Cc1nc2c(sc3ccc(-c4ccc(OCCCN)cc4)cc32)c(=O)[nH]1 | 107 ± 3.8 | 62.6 ± 38 | 78.7 ± 8.6
CN1C(=O)c2ccccc2N(C)c2nc(Nc3ccc(S(=O)(=O)NCCCNC(=O)OC(C)(C)C)cc3)ncc21 | 102 ± 34 | 96.1 ± 18 | 120 ± 19
CN1C(=O)c2ccccc2N(C)c2nc(Nc3cnn(C4CCNCC4)c3)ncc21 | 113 ± 14 | 124 ± 9.6 | 74.7 ± 57
COc1cc(C2CCNCC2)ccc1Nc1nc(Cc2ccccc2F)n2cnnc2c1C(N)=O.Cl | 94.6 ± 22 | 124 ± 26 | 105 ± 20
CNCc1ccc(-c2cc(-c3nc(-c4ccc(S(=O)(=O)C(C)C)cc4)cnc3N)on2)cc1 | 111 ± 4.6 | 86.932 ± 0.0097 | 92.7 ± 10
NS(=O)(=O)c1ccc(N/N=C2\C(=O)Nc3ccc(-c4cnco4)cc32)cc1 | 122 ± 6.1 | 124 ± 35 | 87.2 ± 3
COc1cc2nccc(Nc3ccc(OCc4ccc(NC(C)=O)cc4)cc3)c2cc1OC | 89.5 ± 5.7 | 108 ± 50 | 72.6 ± 17
COc1ccc(CSc2nnc(-c3ccc4ncsc4c3)o2)cc1C(F)(F)F | 96 ± 24 | 76.43 ± 0.69 | 98 ± 24
NS(=O)(=O)c1ccc(N/N=C2\C(=O)Nc3ccc(C(=O)NCCc4c[nH]cn4)cc32)cc1 | 90.9 ± 7.5 | 66.8 ± 12 | 105 ± 5.5
CN(C)CCN(C)C(=O)c1cc(-c2ccncc2)c(-c2ccc(Cl)c(O)c2)o1 | 101 ± 17 | 85.3 ± 35 | 94.8 ± 22
CCNc1n[nH]c2ccc(C3C(C#N)=C(C)NC(C)=C3C#N)cc12 | 88.334 ± 0.065 | 85.3 ± 12 | 79.1 ± 28
COc1cc(N2CCN(C)CC2)ccc1Nc1ncc(Cl)c(Oc2cccc(NC(=O)CC(F)(F)F)c2)n1 | 87.1 ± 2.3 | 96.4 ± 12 | 103 ± 7.1
Cc1cccc(-c2cc(Nc3ccncc3)c3ccccc3n2)n1 | 136 ± 71 | 83.7 ± 4.5 | 48.6 ± 42
COc1cc(Nc2nccc(N3CCC(NC(=O)Nc4cc(C)ccc4C)C3)n2)cc(OC)c1OC (stereo not given) | 101 ± 12 | 84.2 ± 7.8 | 112 ± 7.4
CC(C)(C)c1ccc(C(=O)Nc2cn3cc(-c4cccnc4)ccc3n2)cc1 | 121 ± 3.1 | 93.7 ± 23 | 119 ± 9.8
COc1cc(N2CCNCC2)ccc1Nc1nc(Cc2c(Cl)cccc2Cl)cc2c1C(=O)NCN2 | 82 ± 22 | 102 ± 4.5 | 94 ± 16
Fc1cccc(COc2ccc(Nc3ncncc3C#Cc3ccccc3)cc2Cl)c1 | 103 ± 1.1 | 91.9 ± 18 | 71.4 ± 37
C[C@@H]1CCN(C(=O)CC#N)C[C@@H]1N(C)c1ncnc2[nH]ccc12 | 86 ± 16 | 98.6 ± 24 | 95.6 ± 31
Cc1ccc(-n2nc(C(C)(C)C)cc2NC(=O)Nc2ccc(OCCN3CCOCC3)cc2)cc1 | 123 ± 19 | 103 ± 14 | 121 ± 12

Two records drawn at random from the list so far, as already listed:
SMILES | metabolic activity (1 µM) [%] | metabolic activity (2 µM) [%] | metabolic activity (10 µM) [%]
CN1C(=O)c2ccccc2N(C)c2nc(Nc3cnn(C4CCNCC4)c3)ncc21 | 113 ± 14 | 124 ± 9.6 | 74.7 ± 57
CN(C)CCN(C)C(=O)c1cc(-c2ccncc2)c(-c2ccc(Cl)c(O)c2)o1 | 101 ± 17 | 85.3 ± 35 | 94.8 ± 22
